PubChem BioAssay AID1259254, NCATS | 2017

Purpose: 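Gene knock-downs that lead to re-replication, shown by excess G2 DNA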 (primary screen)
Cell system: human HCT116 colorectal cancer cells
Knock-down reagent: single siRNA against human genes
Timing: 3 days
Measurement: 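Nuclei stained with Hoechst and imaged; cell-cycle phase assigned by DNA content; G2 share scaled per plate, non-targeting siRNA 0%, GMNN siRNA 100%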
Reading the numbers: G2 robust z-score and G2 cells, % of GMNN control: higher = more G2 cells, more excess DNA replication; raw share of cells in G2: higher = larger share of cells with G2 DNA content
Call rule: 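An siRNA counts as active if its G2 robust z-score lies at least 5 MADs above the screen median; here such calls match roughly 38% of GMNN control or more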
Here is a random part of about 59,000 deposited reagents. About 1,550 of all reagents (2.6%) count as active. 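G2 share is only a proxy for re-replication; each gene was hit by three separate siRNAs, and active genes were retested.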 The raw values are shown without normalisation. Entries without a mark were called inactive. Not stated in the record: the amount of reagent.

gene knocked down | PubChem SID | G2 robust z-score | G2 cells, % of GMNN control | raw share of cells in G2 (%)
OR5J2 (olfactory receptor family 5 subfamily J member 2) | SID160762730 | -1.02 | -4.2 | 2.11
OR5J2 (olfactory receptor family 5 subfamily J member 2) | SID160762731 | -0.293 | 0.907 | 3.39
OR5J2 (olfactory receptor family 5 subfamily J member 2) | SID160762732 | -0.931 | -3.58 | 2.18
CA6 (carbonic anhydrase 6) | SID160732714 | 1.45 | 13.1 | 9.75
CA6 (carbonic anhydrase 6) | SID160732799 | -0.979 | -3.92 | 2.53
CA6 (carbonic anhydrase 6) | SID160732890 | 0.972 | 9.81 | 8.06
LUC7L (LUC7 like) | SID160744100 | 0.234 | 4.62 | 6.3
LUC7L (LUC7 like) | SID160744101 | -0.509 | -0.614 | 3.88
LUC7L (LUC7 like) | SID160744102 | 0.87 | 9.09 | 6.04
OVOS1P (ovostatin 1, pseudogene) | SID160725364 | 1.42 | 13 | 8.67
OVOS1P (ovostatin 1, pseudogene) | SID160725365 | -0.559 | -0.965 | 4.39
OVOS1P (ovostatin 1, pseudogene) | SID160767566 | 0.306 | 5.12 | 5.67
CYTH2 (cytohesin 2) | SID160721846 | -0.481 | -0.414 | 5.12
CYTH2 (cytohesin 2) | SID160721847 | -0.787 | -2.57 | 3.37
CYTH2 (cytohesin 2) | SID160732157 | -0.961 | -3.8 | 3.35
FAAH (fatty acid amide hydrolase) | SID160763285 | 0.653 | 7.57 | 7.98
FAAH (fatty acid amide hydrolase) | SID160763296 | -1.26 | -5.93 | 3.01
FAAH (fatty acid amide hydrolase) | SID160763306 | 2.61 | 21.4 | 11.3
TCHP (trichoplein keratin filament binding) | SID160751983 | -0.514 | -0.648 | 3.89
TCHP (trichoplein keratin filament binding) | SID160751984 | -0.778 | -2.51 | 2.71
TCHP (trichoplein keratin filament binding) | SID160751986 | 0.787 | 8.51 | 4.99

8 entries already listed, ordered by “raw share of cells in G2 (%)”, high to low:
gene knocked down | PubChem SID | G2 robust z-score | G2 cells, % of GMNN control | raw share of cells in G2 (%)
CA6 (carbonic anhydrase 6) | SID160732714 | 1.45 | 13.1 | 9.75
OVOS1P (ovostatin 1, pseudogene) | SID160725364 | 1.42 | 13 | 8.67
CA6 (carbonic anhydrase 6) | SID160732890 | 0.972 | 9.81 | 8.06
LUC7L (LUC7 like) | SID160744100 | 0.234 | 4.62 | 6.3
LUC7L (LUC7 like) | SID160744102 | 0.87 | 9.09 | 6.04
LUC7L (LUC7 like) | SID160744101 | -0.509 | -0.614 | 3.88
CA6 (carbonic anhydrase 6) | SID160732799 | -0.979 | -3.92 | 2.53
OR5J2 (olfactory receptor family 5 subfamily J member 2) | SID160762732 | -0.931 | -3.58 | 2.18

Next entries follow:
gene knocked down | PubChem SID | G2 robust z-score | G2 cells, % of GMNN control | raw share of cells in G2 (%)
DROSHA (drosha ribonuclease III) | SID160739069 | -1.19 | -5.37 | 2.4
DROSHA (drosha ribonuclease III) | SID160739070 | 2.26 | 18.9 | 10.2
DROSHA (drosha ribonuclease III) | SID160739071 | -0.401 | 0.148 | 6.23
NKAPD1 (NKAP domain containing 1) | SID160743253 | 0.0767 | 3.51 | 5.87
NKAPD1 (NKAP domain containing 1) | SID160743254 | 0.333 | 5.31 | 6.34
NKAPD1 (NKAP domain containing 1) | SID160743255 | 1.47 | 13.3 | 7.39
MAML1 (mastermind like transcriptional coactivator 1) | SID160723108 | 0.606 | 7.23 | 8.6
MAML1 (mastermind like transcriptional coactivator 1) | SID160723109 | -1.02 | -4.19 | 2.19
MAML1 (mastermind like transcriptional coactivator 1) | SID160723110 | -0.00348 | 2.94 | 4.48
ZNF736 (zinc finger protein 736) | SID160772269 | -0.436 | -0.0999 | 3.89
ZNF736 (zinc finger protein 736) | SID160772270 | -0.906 | -3.4 | 2.22
ZNF736 (zinc finger protein 736) | SID160772271 | -0.255 | 1.17 | 3.56
RERG (RAS like estrogen regulated growth inhibitor) | SID160732055 | -0.37 | 0.365 | 4.62
RERG (RAS like estrogen regulated growth inhibitor) | SID160753111 | 0.133 | 3.9 | 6.64
RERG (RAS like estrogen regulated growth inhibitor) | SID160753112 | 0.0033 | 2.99 | 7.06
UTS2B (urotensin 2B) | SID160762556 | -1.33 | -6.38 | 1.31
UTS2B (urotensin 2B) | SID160762557 | -0.771 | -2.46 | 2.09
UTS2B (urotensin 2B) | SID160762558 | -0.6 | -1.26 | 2.88
LOC729770 (retired record) | SID160773144 | -0.0171 | 2.85 | 5.21
LOC729770 (retired record) | SID160773145 | -0.858 | -3.07 | 2.18
LOC729770 (retired record) | SID160773146 | 0.0483 | 3.31 | 4.38
RAD21 (RAD21 cohesin complex component) | SID160715587 | -0.151 | 1.9 | 5.78
RAD21 (RAD21 cohesin complex component) | SID160715588 | 1.75 | 15.3 | 10.3
RAD21 (RAD21 cohesin complex component) | SID160715589 | 2.27 | 18.9 | 10.2
SLC30A1 | SID160719328 | 0.341 | 5.37 | 6.26
SLC30A1 | SID160719330 | -1.07 | -4.59 | 2.96
SLC30A1 | SID160719331 | -1.37 | -6.69 | 2.77
